Test results from PMC3511043 (Beilstein Journal of Organic Chemistry, 2012).

Test: general procedure: solution-phase peptide synthesis; EDCI/HOAt; EEDQ; ethyl chloroformate/NMM (mixed carbonate); Ugi four-component r
Conditions: coupling step

Substance	step yield
(S)-Benzyl 2-(2-(2-(2-(dimethylamino)benzamido)-N-methylacetamido)-3-methylbutanamido)benzoate	85%
Methyl 2-(2-(2-(2-(dimethylamino)benzamido)-N-(4-fluorobenzyl)acetamido)-3-methylbutanamido)benzoate	58%
Methyl 2-(2-(2-(2-(dimethylamino)benzamido)-N-methylacetamido)-3-methyl-butanamido)benzoate	51%
Methyl 2-(2-(2-(2-(dimethylamino)benzamido)-N-phenethylacetamido)-3-methyl-butanamido)benzoate	52%
Methyl 2-(2-(2-(2-(dimethylamino)benzamido)-N-propylacetamido)-3-methyl-butanamido)benzoate	55%
Methyl 2-(2-(N-(4-chlorobenzyl)-2-(2-(dimethylamino)benzamido)acetamido)-3-methylbutanamido)benzoate	70%
Methyl 2-(2-(N-benzyl-2-(2-(dimethylamino)benzamido)acetamido)-3-methyl-butanamido)benzoate	61%

Same assay, conditions: late stage modification step

Substance	step yield
2-(2-(2-(2-(Dimethylamino)benzamido)-N-(4-fluorobenzyl)acetamido)-3-methyl-butanamido)benzoic acid	90%
2-(2-(2-(2-(Dimethylamino)benzamido)-N-phenethylacetamido)-3-methylbutan-amido)benzoic acid	81%
2-(2-(2-(2-(Dimethylamino)benzamido)-N-propylacetamido)-3-methylbutan-amido)benzoic acid	83%
2-(2-(N-(4-Chlorobenzyl)-2-(2-(dimethylamino)benzamido)acetamido)-3-methyl-butanamido)benzoic acid	91%
2-(2-(N-Benzyl-2-(2-(dimethylamino)benzamido)acetamido)-3-methylbutan-amido)benzoic acid	88%
